Results deposited as PubChem BioAssay AID493246 (Drosophila RNAi Screening Center, 2011)
Assay: 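Genome-wide search for dsRNAs that reduce cell number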 (primary screen). Cells: Drosophila Kc and S2R+ cells. Reagents: long dsRNA against Drosophila genes. Measurement: 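Raw, unnormalised count of remaining cells in each well; per-plate z-scores of cell number underlie the calls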. Direction: Kc cell number and S2R+ cell number: higher = more cells remaining. Call rule: 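Counted as a hit if cell number falls by a z-score of at least 3 within its plate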.
In all, the deposit lists about 21,000 reagents; shown is a random part of those with a known target gene and a result. Of all reagents, 429 (2%) are marked active. 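Values are raw and not normalised between plates; calls rest on per-plate z-scores that were not deposited.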 Unmarked entries are inactive. A plus sign joins genes that one reagent is predicted to hit. Not given: the amount of reagent, the time to read-out.

no.	Target gene	DRSC id	Kc cell number, rep 1	Kc cell number, rep 2	S2R+ cell number, rep 1	S2R+ cell number, rep 2
1	AdipoR	DRSC15767	1.39e6	1.49e6	1.17e6	1.20e6
2	Syx17	DRSC08591	1.48e6	1.47e6	1.35e6	1.23e6
3	Mes2	DRSC11593	1.79e6 (active)	1.78e6	8.61e5	1.04e6
4	Mes2	DRSC11632	1.59e6	1.66e6	7.36e5	8.68e5
5	Ir76b	DRSC10831	1.58e6	1.57e6	1.35e6	1.41e6
6	Con	DRSC08652	1.48e6	1.63e6	1.37e6	1.17e6
7	Uba2	DRSC11311	1.70e6	1.62e6	1.30e6	1.31e6
8	Mal-A7	DRSC06077	1.76e6	1.72e6	1.41e6	1.54e6
9	CG11584	DRSC19408	1.59e6	1.63e6	1.13e6	1.17e6
10	CG42812 + CG42811	DRSC15367	1.45e6	1.64e6	1.05e6	1.23e6
11	CG42812 + CG42811	DRSC15368	1.42e6	1.55e6	1.06e6	1.14e6
12	CG7135	DRSC20026	1.69e6	1.65e6	1.15e6	1.29e6
13	OdsH	DRSC20263	1.69e6	1.71e6	1.15e6	1.22e6
14	CG12491 + CG34105	DRSC04008	1.47e6	1.59e6	9.82e5	1.09e6
15	CG12491 + CG34105	DRSC04124	1.58e6	1.63e6	1.26e6	1.33e6
16	Acp53C14a	DRSC07224	1.63e6	1.66e6	1.18e6	1.41e6
17	Prosbeta5	DRSC07517	1.09e6 (active)	1.16e6	7.01e5	8.05e5
18	pre-mod(mdg4)-U + mod(mdg4)	DRSC13476	1.57e6	1.53e6	1.08e6	1.14e6
19	betaTry	DRSC07582	1.39e6	1.68e6	1.03e6	1.13e6
20	Bet3	DRSC10388	1.56e6	1.49e6	1.26e6	1.50e6
21	CG2256	DRSC18220	1.58e6	1.60e6	1.05e6	1.18e6
22	CG13081	DRSC02185	1.56e6	1.71e6	1.39e6	3.18e5
23	CG5435	DRSC02860	1.52e6	1.64e6	1.24e6	1.33e6
24	CG32706 + CG6999	DRSC18412	1.62e6	1.59e6	1.02e6	1.15e6
25	UQCR-6.4	DRSC06454	1.58e6	1.65e6	1.31e6	1.45e6
26	uri	DRSC04111	1.40e6	1.47e6	1.18e6	1.26e6
27	Arts + Apl	DRSC10349	1.28e6	1.42e6	1.36e6	1.43e6
28	CG34256	DRSC09582	1.56e6	1.66e6	1.16e6	1.41e6
29	CG14105	DRSC10107	1.24e6	1.30e6	1.23e6	1.31e6
30	CG10352	DRSC19353	1.71e6	1.61e6	1.08e6	1.19e6
31	CG4042	DRSC11751	1.40e6	1.35e6	1.35e6	1.40e6
32	betaNACtes1	DRSC19534	1.54e6	1.48e6	1.07e6	1.18e6
33	Efhc1.1	DRSC20135	1.39e6	1.40e6	1.06e6	1.13e6
34	gbb	DRSC04687	1.59e6	1.66e6	1.26e6	1.41e6
35	nudC	DRSC11096	1.41e6	1.51e6	1.27e6	1.35e6
36	nudC	DRSC11097	1.35e6	1.46e6	1.30e6	1.39e6
37	CG13575	DRSC04211	1.52e6	1.58e6	1.26e6	1.38e6

11 neighbouring reagents from above, for reference:
no.	Target gene	DRSC id	Kc cell number, rep 1	Kc cell number, rep 2	S2R+ cell number, rep 1	S2R+ cell number, rep 2
26	uri	DRSC04111	1.40e6	1.47e6	1.18e6	1.26e6
27	Arts + Apl	DRSC10349	1.28e6	1.42e6	1.36e6	1.43e6
28	CG34256	DRSC09582	1.56e6	1.66e6	1.16e6	1.41e6
29	CG14105	DRSC10107	1.24e6	1.30e6	1.23e6	1.31e6
30	CG10352	DRSC19353	1.71e6	1.61e6	1.08e6	1.19e6
31	CG4042	DRSC11751	1.40e6	1.35e6	1.35e6	1.40e6
32	betaNACtes1	DRSC19534	1.54e6	1.48e6	1.07e6	1.18e6
33	Efhc1.1	DRSC20135	1.39e6	1.40e6	1.06e6	1.13e6
34	gbb	DRSC04687	1.59e6	1.66e6	1.26e6	1.41e6
35	nudC	DRSC11096	1.41e6	1.51e6	1.27e6	1.35e6
36	nudC	DRSC11097	1.35e6	1.46e6	1.30e6	1.39e6

The list goes on:
no.	Target gene	DRSC id	Kc cell number, rep 1	Kc cell number, rep 2	S2R+ cell number, rep 1	S2R+ cell number, rep 2
38	Mi-2 + Su(Tpl)	DRSC09640	1.39e6	1.45e6	1.11e6	1.27e6
39	CG9592	DRSC11078	1.54e6	1.75e6	1.29e6	1.55e6
40	CG8314	DRSC07144	1.34e6	1.37e6	1.18e6	1.16e6
41	CG31099	DRSC14252	1.64e6	1.70e6	1.06e6	1.13e6
42	tral	DRSC09779	1.09e6	1.15e6	7.77e5	7.55e5
43	CG18568	DRSC06768	1.42e6	1.49e6	4.69e5	1.08e6
44	CG13532	DRSC04174	1.58e6	1.66e6	1.30e6	1.40e6
45	CG8420	DRSC16418	1.76e6	1.94e6	1.24e6	1.44e6
46	CG17111	DRSC15174	1.44e6	1.38e6	9.79e5	1.09e6
47	CG4168	DRSC01446	1.52e6	1.61e6	1.00e6	1.21e6
48	CG4168	DRSC01447	1.57e6	1.61e6	1.03e6	1.31e6
49	CG4168	DRSC01933	1.31e6	1.33e6	1.26e6	1.26e6
50	CG10991 (retired record)	DRSC12156	1.45e6	1.59e6	1.27e6	1.33e6
51	stac	DRSC13693	1.23e6	1.64e6	1.14e6	1.19e6
52	stac	DRSC14392	1.68e6	1.77e6	1.02e6	1.10e6
53	Tssk	DRSC14784	1.25e6	1.27e6	1.13e6	1.24e6
54	san	DRSC07695	1.52e6	1.57e6	1.10e6	1.21e6
55	Pep	DRSC11252	1.65e6	1.72e6	1.17e6	1.20e6
56	CG14913	DRSC02397	1.56e6	1.76e6	1.37e6	1.48e6
57	CG9692	DRSC11091	1.22e6	1.36e6	1.31e6	1.35e6
58	Ttc30	DRSC01300	1.37e6	1.44e6	1.02e6	1.12e6
59	Ttc30	DRSC02818	1.61e6	1.72e6	1.27e6	1.43e6
60	Nop17l	DRSC06556	1.32e6	1.42e6	1.10e6	1.17e6
61	COX8	DRSC11814	1.27e6	1.36e6	1.07e6	1.14e6
62	ERp44	DRSC20215	6.78e5		9.54e5	
63	CG13045	DRSC09926	1.59e6	1.73e6	1.33e6	1.38e6
64	CG1607	DRSC15130	5.30e5		8.00e5	
65	MBD-R2	DRSC14180	1.54e6	1.56e6	1.10e6	1.21e6
66	Eno	DRSC00750	1.55e6	1.49e6	1.06e6	1.26e6
67	TotB	DRSC15842	1.21e6	1.27e6	1.05e6	1.15e6
68	tutl	DRSC00441	1.47e6	1.52e6	1.11e6	1.24e6
69	tutl	DRSC00442	1.57e6	1.61e6	1.15e6	1.27e6
70	tutl	DRSC00443	1.49e6	1.52e6	1.06e6	1.24e6
71	CG18258	DRSC19798	1.49e6	1.53e6	1.22e6	1.35e6
72	CG33309	DRSC01421	1.56e6	1.54e6	9.83e5	1.19e6
73	IFT46	DRSC02462	1.62e6	1.61e6	1.24e6	2.95e5
74	Adar	DRSC17725	1.51e6	1.48e6	9.84e5	1.12e6
75	nclb	DRSC07009	1.67e6	1.65e6	1.43e6	1.67e6
